In PubChem BioAssay AID2549 (National Center for Advancing Translational Sciences (NCATS), 2010):
The campaign covered roughly 240,000 compounds. About 1,300 (0.54%) were called active. Inconclusive means that the source gave no clear call. Such entries were picked first, then a sample of the others. Calls follow the shape of the dose curve; as a rule, active = well fitted inhibition curve with a large enough effect; inconclusive = small, poorly fitted or top-dose-only effect; inactive = flat fitted curve, though single readings scatter. Where the call is inconclusive, the potency comes from a doubtful curve fit.

The chains behind the UniProt entries cited, without tags or fusion partners. Where a name states a change or a piece, a line headed by the entry shows the natural chain unless it says otherwise.
UniProt P46063: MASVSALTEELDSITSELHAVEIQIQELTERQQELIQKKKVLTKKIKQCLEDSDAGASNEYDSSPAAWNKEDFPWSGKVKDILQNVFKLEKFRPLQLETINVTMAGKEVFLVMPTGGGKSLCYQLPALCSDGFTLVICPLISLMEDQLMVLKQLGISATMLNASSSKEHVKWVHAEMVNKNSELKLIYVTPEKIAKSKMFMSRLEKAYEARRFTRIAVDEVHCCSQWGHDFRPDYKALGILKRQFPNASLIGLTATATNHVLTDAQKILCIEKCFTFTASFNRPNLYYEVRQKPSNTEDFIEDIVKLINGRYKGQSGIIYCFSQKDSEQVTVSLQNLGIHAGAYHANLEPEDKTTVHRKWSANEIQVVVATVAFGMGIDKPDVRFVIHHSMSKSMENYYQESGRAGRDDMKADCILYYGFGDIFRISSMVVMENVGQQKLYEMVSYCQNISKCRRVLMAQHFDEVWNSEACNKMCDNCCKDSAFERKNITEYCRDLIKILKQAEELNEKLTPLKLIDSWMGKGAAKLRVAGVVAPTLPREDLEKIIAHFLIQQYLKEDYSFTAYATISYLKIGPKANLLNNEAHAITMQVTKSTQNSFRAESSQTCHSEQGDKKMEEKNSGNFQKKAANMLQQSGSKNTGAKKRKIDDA

Each molecule was assayed against ATP-dependent DNA helicase Q1 (Homo sapiens) (UniProt P46063) (assay: qHTS Assay for Inhibitors of RecQ-Like Dna Helicase 1 (RECQ1)). Conditions: RECQ1 DNA unwinding, red fluorescence kinetic read; series mostly up to 57.3 µM.
In short: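 50 nM RECQ1T1 preincubated 15 min with compound in Tris pH 8.0 buffer with MgCl2, DTT, Tween-20 and 2.5 ug/ml poly(dI-dC); started with 200 nM TAMRA/BHQ-2 forked duplex and 2 mM ATP. Unwinding read as fluorescence (525/598 nm), two reads 2 h apart.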
Also: nearly all actives have a fitted effect of over 30% in size.
Potency is read from the fitted curve at half-maximal effect.

| SMILES | Potency |
| --- | --- |
| NNc1nc2c(Cl)c(Cl)ccc2s1 | inactive |
| Cc1ccc(-n2cnc(N)c2C(=O)c2cccc([N+](=O)[O-])c2)cc1 | inconclusive: 0.199 µM [inhibitor, full curve, poor fit] |
| O=C(c1ccc2c(c1)OCCO2)N1CCCCC1 | inconclusive: 3.55 µM [inhibitor, full curve] |
| O=C(c1cc(-c2ccco2)nn1-c1cccc(Cl)c1)N1CCCCC1 | inconclusive: 28.2 µM [inhibitor, single point] |
| COc1ccc(C(=O)Nc2scc(-c3ccc(Cl)cc3Cl)c2C(N)=O)cc1 | inconclusive: 12.6 µM [inhibitor, partial curve] |
| OC[C@H]1OC(O)(CN2CCOCC2)[C@H](O)[C@@H]1O (some centres not stated) | inactive |
| COc1ccc(/C=N/NC(=O)CNC(=O)COc2ccccc2)cc1 | inactive |
| O=c1cc(CSc2ccc(Cl)cc2)[nH]c2[nH]n(-c3ccccc3)c(=O)c12 | inconclusive: 35.5 µM [inhibitor, single point] |
| Cc1ccc(/C=C2/SC(=O)NC2=S)o1 | active: 17.8 µM |
| CC(C)C1C(c2ccccc2)NC(c2ccccc2)CC1(O)c1ccc(F)cc1 (configuration not stated) | inconclusive: 20 µM [inhibitor, partial curve] |
| Cc1nc(N2CCC(C(N)=O)CC2)c2c(-c3cccs3)csc2n1 | inconclusive: 35.5 µM [inhibitor, partial curve] |
| CC(C)(C)c1ccc(NC(=O)COC(=O)C2=COCCO2)cc1 | inconclusive: 8.91 µM [inhibitor, single point] |
| Cc1noc(NS(=O)(=O)c2ccc(N/C=C\C(=O)c3ccc(Br)cc3)cc2)c1C | inconclusive: 35.5 µM [inhibitor, single point] |
| c1coc(-c2nn3c(-c4ccco4)nnc3s2)c1 | inconclusive: 15.8 µM [inhibitor, partial curve, poor fit] |
| CCOC(=O)C(Cc1ccccc1)(NC(C)=O)C(=O)OCC | inconclusive: 0.112 µM [inhibitor, full curve] |
| O=C(c1ccccc1)C1CN(c2ccccc2)CC1c1ccc(Cl)cc1 (configuration not stated) | inconclusive: 14.1 µM [inhibitor, partial curve] |
| O=C(COC(=O)Cc1ccccc1F)Nc1cccc(S(=O)(=O)NC2=NCCCCC2)c1 | active: 1 µM |
| O=C(C(Cc1ccccc1)N1C(=O)c2ccccc2C1=O)N1CCc2ccccc21 (configuration not stated) | inconclusive: 39.8 µM [inhibitor, single point] |
| CNC(=S)NCCCCc1cnc[nH]1 | inactive |
| Cc1ccc(C)c(S(=O)(=O)N2CCCOC2CNC(=O)C(=O)NCc2cccnc2)c1 (configuration not stated) | inconclusive: 7.08 µM [inhibitor, single point] |
| Cn1c(SCC(=O)c2ccc(-c3ccccc3)cc2)nnc1-c1ccco1 | inactive |
| CCOC(=O)NC(=O)/C(C#N)=C\NNc1ncc(C(F)(F)F)cc1Cl | inconclusive: 1.41 µM [inhibitor, full curve] |
| CC(=O)Nc1ccc(C(=O)OCC(=O)NC(=O)NC(C)(C)C)cc1 | inconclusive: 0.316 µM [inhibitor, full curve, poor fit] |

13 entries already listed, ordered by heavy-atom count, ascending:

| SMILES | Potency |
| --- | --- |
| NNc1nc2c(Cl)c(Cl)ccc2s1 | inactive |
| CNC(=S)NCCCCc1cnc[nH]1 | inactive |
| OC[C@H]1OC(O)(CN2CCOCC2)[C@H](O)[C@@H]1O (some centres not stated) | inactive |
| c1coc(-c2nn3c(-c4ccco4)nnc3s2)c1 | inconclusive: 15.8 µM [inhibitor, partial curve, poor fit] |
| CCOC(=O)C(Cc1ccccc1)(NC(C)=O)C(=O)OCC | inconclusive: 0.112 µM [inhibitor, full curve] |
| CC(C)(C)c1ccc(NC(=O)COC(=O)C2=COCCO2)cc1 | inconclusive: 8.91 µM [inhibitor, single point] |
| Cc1nc(N2CCC(C(N)=O)CC2)c2c(-c3cccs3)csc2n1 | inconclusive: 35.5 µM [inhibitor, partial curve] |
| COc1ccc(/C=N/NC(=O)CNC(=O)COc2ccccc2)cc1 | inactive |
| O=c1cc(CSc2ccc(Cl)cc2)[nH]c2[nH]n(-c3ccccc3)c(=O)c12 | inconclusive: 35.5 µM [inhibitor, single point] |
| Cn1c(SCC(=O)c2ccc(-c3ccccc3)cc2)nnc1-c1ccco1 | inactive |
| Cc1noc(NS(=O)(=O)c2ccc(N/C=C\C(=O)c3ccc(Br)cc3)cc2)c1C | inconclusive: 35.5 µM [inhibitor, single point] |
| Cc1ccc(C)c(S(=O)(=O)N2CCCOC2CNC(=O)C(=O)NCc2cccnc2)c1 (configuration not stated) | inconclusive: 7.08 µM [inhibitor, single point] |
| O=C(COC(=O)Cc1ccccc1F)Nc1cccc(S(=O)(=O)NC2=NCCCCC2)c1 | active: 1 µM |

Additional compounds follow.

| SMILES | Potency |
| --- | --- |
| C=C1CC[C@H](O)C/C1=C/C=C1\CCC[C@]2(C)C([C@H](C)CCCC(C)(C)O)CC[C@@H]12 (some centres not stated) | inactive |
| O=C(O)C1CC=CCC1C(=O)Nc1cccc(Cl)c1 (configuration not stated) | inactive |
| Cc1cccc(-n2c(C)n[nH]c2=S)c1C | inactive |
| COc1ccc(CNC(=O)/C=C/c2ccco2)cc1OC | inconclusive: 35.5 µM [inhibitor, single point] |
| S=C(NCCc1ccccc1)N1CCn2cccc2C1c1ccncc1 (configuration not stated) | inactive |
| O=C(N/N=C/c1ccc(Cl)s1)c1ccccc1[N+](=O)[O-] | inconclusive: 0.158 µM [inhibitor, full curve] |
| Cc1ccc(N=C2NC(=O)/C(=C/C=C/c3ccco3)S2)cc1 | active: 17.8 µM |
| CC12CCC(C(=O)N/N=C/c3ccc(O)cc3O)(OC1=O)C2(C)C (configuration not stated) | inactive |
| O=C(/C=C/c1ccco1)Nc1ccc(Oc2ccc(Cl)cc2)cc1 | inconclusive: 39.8 µM [inhibitor, partial curve] |
| COc1ccccc1CNc1cc(-c2ccccc2C)ncn1 | inactive |
| COc1cccc(C(=O)NC2CC3CCCC(C2)N3CC(=O)Nc2ccccc2)c1 (configuration not stated) | inactive |
| O=C1CSC(=S)N1/N=C/c1ccc(O)c([N+](=O)[O-])c1 | active: 25.1 µM |
| COC(=O)N[C@H](C[N+](=O)[O-])C(C)(C)C | inactive |
| COc1ccc(-c2cn3cccnc3n2)cc1NC(=O)c1ccc(Br)o1 | inconclusive: 39.8 µM [inhibitor, single point] |
| COc1ccccc1-c1ccc(SCc2cccc(C)c2)nn1 | inconclusive: 3.98 µM [inhibitor, single point] |
| Cc1ccccc1OCCCCc1c(C)n[nH]c1C | inconclusive: 22.4 µM [inhibitor, partial curve, poor fit] |
| COc1cccc(C=NC=Nc2cccc(OC)c2)c1 | inconclusive: 3.55 µM [inhibitor, full curve] |
| C[N+](C)(CCCCCC[N+](C)(C)CCCN1C(=O)c2cccc3cccc(c23)C1=O)CCCN1C(=O)c2cccc3cccc(c23)C1=O | inconclusive: 39.8 µM [inhibitor, single point] |
| O=C(CSC1CC(=O)N(CC(c2ccccc2)c2ccccc2)C1=O)Nc1ccc(Cl)cc1 (configuration not stated) | inconclusive: 31.6 µM [inhibitor, single point] |
| COc1ccc2c(c1)C(=O)[C@H](OC(=O)NCCc1ccc(OC)c(OC)c1)[C@@H](c1ccc(OC)c(Br)c1)O2 | inactive |
| Cc1cc(C(=O)Nn2c(C3CCCCC3)nc3ccccc3c2=O)ccc1[N+](=O)[O-] | active: 25.1 µM |
| Cc1oc(C)c2c(=O)ccc3c(c12)OC(N)=C(C#N)C3c1ccccc1Cl (configuration not stated) | inconclusive: 39.8 µM [inhibitor, single point] |
| CC(C)[C@@H](CC(=O)N[C@@H]1CCNC[C@H]1C(=O)N[C@H](CC(=O)N[C@@H](CCC(=O)O)CC(=O)O)Cc1c[nH]c2ccccc12)NC(=O)C[C@H](CO)NC(=O)[C@@H]1CCCC[C@H]1N | inactive |

| SMILES | Potency |
| --- | --- |
| COCCN=c1scc(-c2ccco2)n1/N=C/c1ccc(O)c(O)c1O | active: 8.91 µM |
| N#Cc1cccc(-c2ccc3ncnc(NCc4cccs4)c3c2)c1 | inconclusive: 25.1 µM [inhibitor, single point] |
| C/C(CC(=O)N1CCCC1)=N\NC(=O)c1cc2ccccc2cc1O | inconclusive: 14.1 µM [inhibitor, single point] |
| Cc1nc(N=Nc2cc([N+](=O)[O-])ccc2Cl)c(COP(=O)(O)O)c(C=O)c1O | active: 28.2 µM |
| CCOc1cccc(NC(=O)c2ccc(S(=O)(=O)N3CCCC3)cc2)c1 | active: 12.6 µM |
| COc1ccc(-n2nc([N+](=O)[O-])c(=NCc3ccc4c(c3)OCO4)n2O)cc1 | inconclusive: 1 µM [inhibitor, full curve, poor fit] |
| CCN(CC(=O)NCc1cccs1)C(=O)CCc1c[nH]c2ccccc12 | inconclusive: 2.82 µM [inhibitor, partial curve] |
| C#CC(CC)(CC)NC(=O)NC1CCCCC1 | inconclusive: 22.4 µM [inhibitor, partial curve] |
| Cc1cc(C)c2nc(-c3ccccn3)cc(C(=O)Nc3ccc(S(=O)(=O)Nc4onc(C)c4C)cc3)c2c1 | inconclusive: 35.5 µM [inhibitor, single point] |
| CCOC(=O)Nc1cc(OCC)c(NC(=O)C2CC2)cc1OCC | inconclusive: 0.158 µM [inhibitor, full curve, poor fit] |
| O=C(COC(=O)Cc1ccc(S(=O)(=O)N2CCOCC2)s1)NCCc1ccccc1 | inconclusive: 28.2 µM [inhibitor, single point] |
| Cc1ccc(NC(=O)c2c3c(nc4ccccc24)CCC3)cc1S(=O)(=O)N(C)C | inconclusive: 35.5 µM [inhibitor, single point] |
| COc1cccc(F)c1C(=O)NC(=O)Nc1ccc2nc(C)oc2c1 | active: 35.5 µM |
| O=C(O)c1ccc2c(c1)C(=O)N(c1cccc(S(=O)(=O)Nc3cccc(C(F)(F)F)c3)c1)C2=O | inactive |
| CN=c1scc(-c2ccc(F)cc2)n1/N=C/c1ccc(O)c(O)c1 | inconclusive: 39.8 µM [inhibitor, partial curve, poor fit] |
| CCN(Cc1ccncc1)S(=O)(=O)c1ccc(C(C)=O)cc1 | inconclusive: 8.91 µM [inhibitor, single point] |
| COc1ccc(C(=O)CC(=O)c2ccc(C(C)(C)C)cc2)cc1 | active: 31.6 µM |
| Cc1ccc2c(CC(=O)OCc3cc(=O)n4c(n3)sc3ccccc34)coc2c1 | inconclusive: 11.2 µM [inhibitor, partial curve] |
| COc1ccc2cc(CN(CCO)C(=O)c3ccc(Br)cc3)c(=O)[nH]c2c1 | inconclusive: 7.08 µM [inhibitor, single point] |
| O=C(O)CCCCCn1c(SCC(=O)N2CCCC2)nc2ccsc2c1=O | inactive |
| CC[C@H](C)[C@H](NC(=O)[C@H](Cc1ccc(O)cc1)NC(=O)[C@H](Cc1cnc[nH]1)NC(=O)[C@H](CCCNC(=N)N)NC(=O)[C@H](CC(C)C)NC(=O)[C@H](C)NC(=O)[C@H](CO)NC(=O)[C@H](Cc1ccc(O)cc1)NC(=O)[C@H](Cc1ccc(O)cc1)NC(=O)[C@H](CCCNC(=N)N)NC(=O)[C@H](C)NC(=O)[C@H](CCSC)NC(=O)[C@H](CC(=O)O)NC(=O)[C@H](CCC(=O)O)NC(=O)[C@H](C)NC(=O)[C@@H]1CCCN1C(=O)[C@H](C)NC(=O)[C@H](CC(=O)O)NC(=O)[C@H](CCC(=O)O)NC(=O)CNC(=O)[C@@H]1CCCN1C(=O)[C@H](CC(N)=O)NC(=O)[C@H](CC(=O)O)NC(=O)[C@@H]1CCCN1C(=O)[C@H](CCCCN)NC(=O)[C@H](CO)NC(=O)[C@@H]1CCCN1C(=O)[C@@H](N)Cc1ccc(O)cc1)C(=O)N[C@@H](CC(N)=O)C(=O)N[C@@H](CC(C)C)C(=O)N[C@@H](CC(C)C)C(=O)N[C@H](C(=O)N[C@@H](CCCNC(=N)N)C(=O)N1CCC[C@H]1C(=O)N[C@@H](CCCNC(=N)N)C(=O)N[C@@H](Cc1ccc(O)cc1)C(N)=O)[C@@H](C)O | inactive |

Exported tab-delimited: entries from further up.
SMILES	Potency
CCOC(=O)Nc1cc(OCC)c(NC(=O)C2CC2)cc1OCC	inconclusive: 0.158 µM [inhibitor, full curve, poor fit]
COc1ccc2cc(CN(CCO)C(=O)c3ccc(Br)cc3)c(=O)[nH]c2c1	inconclusive: 7.08 µM [inhibitor, single point]
